The text below walks through data of PMC6167383, “Regulatory control of DNA end resection by Sae2 phosphorylation” (Nature Communications, 2018).

No constants are given. Whether binding was seen depends on the method and setting.

The assay has as its target C-terminal domain of pSae2 (residues 170-345) dephosphorylated with λ phosphatase (pSae2 ΔN169 λ) (S. cerevisiae) (UniProt P46946). Nature of the assay: SEC; Superose 6 10/300 GL, 50 mM Tris-HCl pH 7.5, 150 mM NaCl, 10% glycerol, 0.5 mM β-mercaptoethanol, 4 °C; ~75 μg of the Sae2 variant, mock-treated or treated with λ phosphatase for 90 min at 30 °C before loading; absorbance at 215 nm; both purified.

B1: C-terminal domain of pSae2 (residues 170-345) dephosphorylated with λ phosphatase (pSae2 ΔN169 λ) (domain or fragment, UniProt P46946 170-345)
chain: IELENPESTSPNLYKNVKDNFLFDFNTNPLTKRAWILEDFRPNEDIAPVKRGRRKLERFYAQVGKPEDSKHRSLSVVIESQNSDYEFAFDNLRNRSKSPPGFGRLDFPSTQEGNEDKKKSQEIIRRKTKYRFLMASNNKIPPYEREYVFKREQLNQIVDDGCFFWSDKLLQIYARC
modifications: dephosphorylated with λ phosphatase
As to B1, the binding entry is on record as “no binding”.
